According to the supplement of paper PMC6411743:
± gives the standard deviation of the averaged measurements. This is one part of the list.

Biological target: T1, UniProt O75934
T1 sequence (whole entry): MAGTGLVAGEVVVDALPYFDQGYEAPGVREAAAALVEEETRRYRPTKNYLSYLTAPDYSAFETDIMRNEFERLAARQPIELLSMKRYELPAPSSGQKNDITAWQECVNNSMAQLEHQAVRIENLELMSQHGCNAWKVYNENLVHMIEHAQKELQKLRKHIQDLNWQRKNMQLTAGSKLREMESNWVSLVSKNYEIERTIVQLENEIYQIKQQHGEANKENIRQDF
Experiment: NP40-soluble protein abundance relative to vehicle (solubility fold change) (ratio); higher = more soluble protein in presence of GTP
Experimental: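 Solubility proteome profiling in Jurkat crude lysate. Lysate was treated with Mg-GTP (0.1-10 mM) for 10 min at room temperature and 3 min at 37 °C, then solubilised with 0.8% NP40 and benzonase, followed by ultracentrifugation. Proteins were quantified by TMT10 LC-MS/MS; the value is the NP40-soluble abundance relative to the NP40-processed vehicle, from 3 independent experiments.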

## Nc1nc2c(ncn2[C@@H]2O[C@H](COP(=O)(O)OP(=O)(O)OP(=O)(O)O)[C@@H](O)[C@H]2O)c(=O)[nH]1 [guanosine triphosphate]
concentration: 0.1mM
  NP40-soluble protein abundance: 0.955 ± 0.048
concentration: 0.5mM
  NP40-soluble protein abundance: 0.97 ± 0.034
concentration: 1mM
  NP40-soluble protein abundance: 1.04 ± 0.071
concentration: 2mM
  NP40-soluble protein abundance: 1.15 ± 0.019
concentration: 4mM
  NP40-soluble protein abundance: 1.12 ± 0.051
concentration: 6mM
  NP40-soluble protein abundance: 1.168 ± 0.0088
concentration: 8mM
  NP40-soluble protein abundance: 1.14 ± 0.05
concentration: 10mM
  NP40-soluble protein abundance: 1.35 ± 0.15
